# Reference: paper PMC12663577
# The chains behind the UniProt entries cited, without tags or fusion partners. Where a name states a change or a piece, a line headed by the entry shows the natural chain unless it says otherwise.
# UniProt P23443: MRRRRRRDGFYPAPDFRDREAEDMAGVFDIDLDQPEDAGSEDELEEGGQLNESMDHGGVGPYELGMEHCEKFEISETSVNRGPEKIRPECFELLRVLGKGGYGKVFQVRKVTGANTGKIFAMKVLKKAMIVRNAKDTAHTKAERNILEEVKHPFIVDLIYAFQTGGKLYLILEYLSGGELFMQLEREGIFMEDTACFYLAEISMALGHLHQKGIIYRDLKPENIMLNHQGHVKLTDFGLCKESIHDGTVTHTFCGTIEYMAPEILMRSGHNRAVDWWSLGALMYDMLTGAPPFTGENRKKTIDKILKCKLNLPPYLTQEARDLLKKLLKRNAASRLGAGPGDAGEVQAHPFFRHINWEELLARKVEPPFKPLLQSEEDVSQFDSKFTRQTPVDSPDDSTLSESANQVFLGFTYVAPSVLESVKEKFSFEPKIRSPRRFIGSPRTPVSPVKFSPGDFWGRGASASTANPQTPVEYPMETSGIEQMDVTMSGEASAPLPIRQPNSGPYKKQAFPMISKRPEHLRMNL
# UniProt Q96E35: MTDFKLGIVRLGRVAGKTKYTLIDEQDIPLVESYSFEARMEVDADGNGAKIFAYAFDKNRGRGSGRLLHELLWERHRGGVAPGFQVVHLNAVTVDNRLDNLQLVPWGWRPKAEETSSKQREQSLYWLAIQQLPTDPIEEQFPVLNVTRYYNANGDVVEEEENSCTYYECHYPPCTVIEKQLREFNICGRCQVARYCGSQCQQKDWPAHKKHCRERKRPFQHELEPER
# UniProt Q8N122: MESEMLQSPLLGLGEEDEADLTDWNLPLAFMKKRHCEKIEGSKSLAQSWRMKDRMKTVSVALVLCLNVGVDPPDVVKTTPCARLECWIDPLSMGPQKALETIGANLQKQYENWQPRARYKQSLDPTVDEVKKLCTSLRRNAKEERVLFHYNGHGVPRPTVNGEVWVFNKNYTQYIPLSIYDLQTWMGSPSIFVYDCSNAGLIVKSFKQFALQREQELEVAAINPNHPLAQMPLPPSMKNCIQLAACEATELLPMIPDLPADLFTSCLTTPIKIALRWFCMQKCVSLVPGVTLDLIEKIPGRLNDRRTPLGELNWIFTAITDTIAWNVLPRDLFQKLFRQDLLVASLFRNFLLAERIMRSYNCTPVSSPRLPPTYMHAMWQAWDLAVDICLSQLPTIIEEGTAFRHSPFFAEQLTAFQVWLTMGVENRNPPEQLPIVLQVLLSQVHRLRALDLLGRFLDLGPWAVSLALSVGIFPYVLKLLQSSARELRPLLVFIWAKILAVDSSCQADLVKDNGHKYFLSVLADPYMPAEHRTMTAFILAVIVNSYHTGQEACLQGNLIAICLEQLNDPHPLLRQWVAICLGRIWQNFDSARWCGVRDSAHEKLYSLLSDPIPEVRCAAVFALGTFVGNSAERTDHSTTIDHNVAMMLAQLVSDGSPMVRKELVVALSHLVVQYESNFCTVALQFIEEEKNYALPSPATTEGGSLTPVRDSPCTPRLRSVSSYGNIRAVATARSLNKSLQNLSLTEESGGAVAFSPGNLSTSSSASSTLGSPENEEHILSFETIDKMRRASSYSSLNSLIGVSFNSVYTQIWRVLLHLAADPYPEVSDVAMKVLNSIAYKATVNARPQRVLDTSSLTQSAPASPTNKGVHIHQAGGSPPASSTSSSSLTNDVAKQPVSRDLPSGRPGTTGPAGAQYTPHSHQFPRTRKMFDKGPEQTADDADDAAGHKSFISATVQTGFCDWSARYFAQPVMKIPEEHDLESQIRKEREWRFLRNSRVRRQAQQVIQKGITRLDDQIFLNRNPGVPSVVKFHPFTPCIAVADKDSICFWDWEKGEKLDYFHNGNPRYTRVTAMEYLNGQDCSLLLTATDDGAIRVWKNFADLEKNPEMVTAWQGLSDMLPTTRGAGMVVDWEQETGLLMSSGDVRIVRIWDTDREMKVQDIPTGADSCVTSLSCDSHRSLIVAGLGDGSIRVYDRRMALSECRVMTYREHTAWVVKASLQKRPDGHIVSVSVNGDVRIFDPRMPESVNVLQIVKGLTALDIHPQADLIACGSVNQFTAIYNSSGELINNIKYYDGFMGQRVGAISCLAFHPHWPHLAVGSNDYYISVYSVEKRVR
# No constants are given. Whether binding was seen depends on the method and setting. In cells and extracts the contact can be indirect. Some entries that bind do so weakly or less than the wild type. For some of these results: Where a sequence is shown, tags or fusion partners need not be part of it.
# How the values were obtained:
# [1] = target: S6K-Flag (pRK-S6K-Flag) (UniProt P23443); experiment: co-IP; 293T co-transfected with pRK-S6K-Flag (or pRK-Metap2-Flag) and pLJM1-Raptor-GFP; control and MAEA KO cells (association impaired by MAEA KO); which tag was precipitated was not shown
# [2] = target: V5-tagged full-length ZMYND19 (UniProt Q96E35); experiment: co-IP; anti-V5-tag magnetic beads, 3 h at 4 °C, lysates (IP lysis buffer) of cells stably expressing V5-tagged cDNAs from pLX-TRC313 lentivirus; YCCEL1 and 293T; ZMYND19 also from MKLN1 depleted cells; immunoblot
# [3] = target: GFP-tagged Raptor (pLJM1-Raptor-GFP) (UniProt Q8N122); experiment: co-IP; GFP-Trap agarose, 6 h at 4 °C, 293T control single cell clones transiently transfected with Rheb-V5 and Raptor-GFP or GFP; immunoblot
# [4] = target: GFP-tagged Raptor (pLJM1-Raptor-GFP) (UniProt Q8N122); experiment: co-IP; GFP-Trap agarose, 293T with stable Rheb-V5 expression transiently transfected with GFP or Raptor-GFP, without or with MKLN1 and ZMYND19 expression vectors; immunoblot
# [5] = target: T1, TMEM192-FLAG (UniProt Q8IY95); experiment: co-IP; anti-FLAG immunopurification from HEK-293T transiently transfected for 24 h with one FLAG-tagged bait and Raptor-MYC, no ZMYND19 co-expressed with the other baits; immunoblot
# T1 sequence: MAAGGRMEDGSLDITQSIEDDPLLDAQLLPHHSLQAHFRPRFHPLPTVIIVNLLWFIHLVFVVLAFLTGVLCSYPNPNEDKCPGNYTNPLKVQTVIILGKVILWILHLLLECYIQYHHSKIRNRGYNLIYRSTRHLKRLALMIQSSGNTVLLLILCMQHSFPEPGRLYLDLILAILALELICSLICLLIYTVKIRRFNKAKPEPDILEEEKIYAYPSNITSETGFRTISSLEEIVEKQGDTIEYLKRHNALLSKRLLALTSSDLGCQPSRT
# [6] = target: FLAG-ZMYND19 (UniProt Q96E35); experiment: as above
# [7] = target: FLAG-tagged MKLN1 and ZMYND19, co-expressed (ZMYND19/MKLN1) (UniProt Q96E35); experiment: co-IP; anti-FLAG immunopurification from 293T transiently transfected with FLAG-tagged ZMYND19 and MKLN1, Myc-tagged Raptor and either HA-tagged Rheb or HA-tagged RagA and RagC (wild type or GTP/GDP-restricted point mutants); immunoblot
substance,measurement,setting,value
GFP-tagged Raptor (pLJM1-Raptor-GFP) (from UniProt Q8N122 1-1335),binding,[1],binds
Raptor (found with V5-tagged ZMYND19) (from UniProt Q8N122 1-1335),binding,[2],binds
S6K (endogenous) (from UniProt P23443 1-525),binding,[3],binds
same,binding,[4],binds
Myc-tagged Raptor (from UniProt Q8N122 1-1335),binding,[5],no binding
same,binding,[6],binds
HA-tagged Rheb (from UniProt Q15382 1-184),binding,[7],no binding
